These results are taken from publication doi:10.1101/2025.03.25.645244.

Amino acid sequences for entries named in this document (tags omitted).
UniProt Q9H299: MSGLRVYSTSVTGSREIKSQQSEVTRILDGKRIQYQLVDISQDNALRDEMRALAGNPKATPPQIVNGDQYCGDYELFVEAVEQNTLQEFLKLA
UniProt Q9UJC5: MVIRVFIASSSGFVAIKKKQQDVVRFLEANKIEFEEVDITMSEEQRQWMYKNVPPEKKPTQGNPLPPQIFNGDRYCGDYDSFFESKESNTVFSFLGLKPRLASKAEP

These are yes or no findings as the source states them, for the method shown.

The target in one test is human SH3BGRL-3 (human) (UniProt Q9H299). Description: AUC.
A further test addresses human SH3BGRL-2 (human) (UniProt Q9UJC5). Description: AUC.

In the case of “human SH3BGRL-3 (from UniProt Q9H299 1-93)”, the binding result in the test with human SH3BGRL-3 (human) is on record as “no binding”.

Take “human SH3BGRL-2 (from UniProt Q9UJC5 1-107)”: the binding entry in the test with human SH3BGRL-2 (human) is reported as “no binding (tested: 17 µM)”.
